# Measured values reported in PubChem BioAssay AID540276 (National Center for Advancing Translational Sciences (NCATS), 2011).
# Screen size: about 300,000 compounds; about 5,400 (1.8%) were called active. The shares of active, inactive and inconclusive entries below differ from those in the screen. The call rests on the fitted dose curve; tested in HEK293 cells. Where the call is inconclusive, the potency comes from a doubtful curve fit.
# Assay: qHTS for inhibitors of binding or entry into cells for Marburg Virus
# Details: Marburg virus pseudotyped entry inhibition, cell reporter; activity change, negative = inhibition: at 37.8 µM (top of the series) unless noted
# On the % scale 0 is the no-effect control and ±100 the full control effect; potency means the concentration at half of the fitted maximal effect.
Structure (SMILES),"activity change, negative = inhibition",Potency
COc1ccc(S(=O)(=O)N2CCC(C(=O)NCC3CC3)CC2)cc1,inactive: 0.945% [at 46.1 µM],
Cn1cc(Br)c(-c2cccc(NC(=O)CCC(=O)O)c2)n1,inactive: -7.6% [at 46.1 µM],
COc1cc(OC)c(C2Nc3ccccc3-c3nnc(SCc4ccccc4)nc3O2)cc1OC (stereo unspecified),inactive: 8.44% [at 46.1 µM],
COc1ccc(OC)c(C2N=C(N)Nc3nc4ccccc4n32)c1 (stereo unspecified),,"inconclusive: 5.62 µM [inhibitor, single point]"
O=C1c2ccccc2C(=O)C1c1ccc(O)cc1,inactive: 8.93% [at 46.1 µM],
N#C/C(=C\c1ccc(OCc2ccccc2)cc1)C(N)=O,inactive: 14.3% [at 46.1 µM],
COC(=O)CSc1nc(-c2ccc(F)cc2)cc(C(F)(F)F)n1,,"inconclusive: 3.98 µM [activator, single point]"
Cc1sc(NC(=O)c2ccco2)c(C(c2ccncc2)N2CCOCC2)c1C (stereo unspecified),,"inconclusive: 8.2 µM [inhibitor, partial curve, poor fit]"
CC(=O)c1cccc(NC(=O)Nc2ccccc2)c1,,"inconclusive: 3.98 µM [activator, full curve, poor fit]"
CN(C)c1nc(SCc2ccccc2)nc(N2CCOCC2)n1,inactive: -9.51%,
Cc1oc(S(=O)(=O)N2CCOCC2)cc1C(=O)Nc1ccc(F)cc1,inactive: -9.27% [at 46.1 µM],
Cn1cc(C(=O)N2CCc3ccccc3C2)c(=O)c2cc(S(=O)(=O)N3CCCCC3)ccc21,inactive: -29%,
Nn1cnnc1N/N=C/c1ccc(Cl)cc1Cl,,"inconclusive: 20 µM [inhibitor, single point]"
O=C(c1ccccc1)c1ccc2cc(O)ccc2c1,,"inconclusive: 35.5 µM [inhibitor, single point]"
O=C(C[C@H]1C(=O)N(CCc2ccccc2)C[C@@H]1Cc1ccccc1)Nc1ccc(Br)cc1,,"inconclusive: 19.9 µM [inhibitor, partial curve, poor fit]"
Cc1csc(N/N=C/c2ccccn2)n1,,"inconclusive: 1.41 µM [inhibitor, full curve, poor fit]"
COc1ccc(C2NC(C(=O)O)CS2)cc1COCC(F)(F)F (stereo unspecified),inactive: 10.8%,
Nc1cc(=O)[nH]c(SCc2ccc(Cl)cc2)n1,inactive: -10.1%,
NS(=O)(=O)c1ccc(NC(=O)/C=C/c2ccccc2[N+](=O)[O-])cc1,inactive: -2.5% [at 46.1 µM],
Cc1ccc(S(=O)(=O)N2CCCCC2)cc1NC(=O)c1cncc(Br)c1,,"inconclusive: 35.5 µM [inhibitor, single point]"
COc1ccc(OC)c(NC(=O)CSCc2cnn(-c3ccccc3)c2-n2cccc2)c1,,"inconclusive: 1.26 µM [inhibitor, full curve, poor fit]"
COc1ccc(-c2nc(CN3CCC(C(=O)NCCCOC(C)C)CC3)c(C)o2)cc1OC,inactive: -4.35% [at 46.1 µM],
COc1cccc(OCCSc2nc3ccccc3n2CC(=O)N2CCCCC2)c1,inactive: -27% [at 46.1 µM],

Structure (SMILES),"activity change, negative = inhibition",Potency
CCC(C)c1ccc(S(=O)(=O)N2CCN(S(=O)(=O)c3ccc(NC(C)=O)cc3)CC2)cc1 (stereo unspecified),,"inconclusive: 1.12 µM [activator, partial curve, poor fit]"
COC(=O)N[C@@H](c1cccc(C)c1)[C@]1(C(=O)OC)CCCC1=O,,"inconclusive: 0.841 µM [inhibitor, partial curve]"
N#Cc1ccc(C(=O)OCc2cccc(S(=O)(=O)N3CCOCC3)c2)cc1,,"inconclusive: 31.6 µM [activator, single point]"
COc1ccc(/C=C\C(=O)Oc2cccc(/C=N/NC(=O)Cc3ccc(OC)c(OC)c3)c2)cc1,,"inconclusive: 0.112 µM [activator, full curve, poor fit]"
O=S1(=O)N=C(N2CCOCC2)c2ccccc21,,"inconclusive: 25.1 µM [activator, single point]"
O=C(Nc1nccs1)C12CC3CC(C1)CC(C(=O)Nc1nccs1)(C3)C2,,"inconclusive: 35.5 µM [inhibitor, single point]"
O=C(Nc1ccc(Cl)cc1C(=O)Nc1ccc(Br)cn1)c1ccco1,,"inconclusive: 29.1 µM [inhibitor, single point]"
CN(CC(=O)Nc1ccccc1Cl)C(=O)c1cccc(S(=O)(=O)N2CCN(c3ccccc3)CC2)c1,,"inconclusive: 17.8 µM [inhibitor, single point]"
Cc1ccc(C(=O)O)cc1-c1ccc(C=C2C(=O)c3ccccc3C2=O)o1,inactive: -5.75% [at 46.1 µM],
O=S(=O)(Nc1ccc(-c2nc3cccnc3s2)cc1)c1ccccc1F,,"inconclusive: 31.6 µM [activator, single point]"
COc1ccc(-c2noc(-c3cccnc3NCc3ccco3)n2)cc1,inactive: 2.51% [at 46.1 µM],
N/C(=N\OC(=O)CSc1ccccc1)c1cccc([N+](=O)[O-])c1,,"inconclusive: 29.1 µM [activator, single point]"
O=C(CC1C(=O)NCCN1Cc1cccc(C(F)(F)F)c1)NCCc1cnccn1 (stereo unspecified),inactive: 28%,
N#Cc1ccc(Nc2ccccc2)c(N)c1,inactive: 2.33%,
O=c1cc(CN2CC=C(c3ccccc3)CC2)c2c(ccc3ccccc32)o1,,"inconclusive: 11.2 µM [inhibitor, partial curve, poor fit]"
COc1cc(/C=C/C(=O)OCC(=O)Nc2ccccc2Sc2ccc(Cl)cc2)ccc1O,,"inconclusive: 17.8 µM [inhibitor, single point]"
O=C1C2CC=CCC2C(=O)N1c1ccc(OCC(O)Cn2nnc3ccccc32)cc1 (stereo unspecified),inactive: 8.03%,
CCc1ccc(-c2nc(CN3CCCC(C(=O)N4CCN(c5cc(Cl)ccc5C)CC4)C3)c(C)o2)cc1 (stereo unspecified),,"inconclusive: 22.4 µM [inhibitor, single point]"
COCC1CCN(C(=O)C2CCC(=O)N(Cc3ccc(Cl)cc3)C2)CC1 (stereo unspecified),inactive: 3.92%,
C=CCOC(=O)C(C(C)=O)[C@@H](NC(=O)OC)c1cccc(C)c1 (stereo partly specified),,"inconclusive: 0.266 µM [inhibitor, full curve]"
O=C(Nc1nnc(-c2ccco2)s1)c1ccccc1,,"inconclusive: 0.291 µM [activator, full curve]"
O=C(N/N=C(\c1ccccc1)c1cccnc1)c1cccc(F)c1,,"inconclusive: 5.62 µM [inhibitor, full curve, poor fit]"
Cc1ccc(Cl)cc1N1CCN(C(=S)NCc2ccco2)CC1,,"inconclusive: 20 µM [inhibitor, single point]"

# In another format: 2 of the compounds above
Structure (SMILES)	activity change, negative = inhibition	Potency
O=S(=O)(Nc1ccc(-c2nc3cccnc3s2)cc1)c1ccccc1F		inconclusive: 31.6 µM [activator, single point]
N/C(=N\OC(=O)CSc1ccccc1)c1cccc([N+](=O)[O-])c1		inconclusive: 29.1 µM [activator, single point]
